Data: EP0273990B1, “Novel organic peroxides and their use in the preparation of epoxide groups containing (co)polymers” (AKZO N.V., priority 1986, dated 1988)

Test: Modification of (co)polymer in Brabender blendor, epoxide content by potentiometric titration
Details: 40 mmoles peroxide per 100 g of copolymer

SMILES	Epoxide content (mmoles/100 g copolymer) (1 hour, blendor temperature per peroxide as in Table 4)	Epoxide content (mmoles/100 g copolymer) (reaction time 2,5 hours, 104-124 °C)
C=CC(C)(C)OOC(C)(C)c1ccccc1 [peroxide 3, α-(2-methyl-3-buten-2-ylperoxy)isopropylbenzene]	6,9 mmoles/100 g copolymer	
C=CC(C)(C)OOC(=O)OCC(CC)CCCC (centres unmarked) [peroxide 6, 0-(2-ethylhexyl) 0,0-(2-methyl-3-buten-2-yl) monoperoxycarbonate]		4,4 mmoles/100 g copolymer
